From patent US9132118B2, “Taxane analogs for the treatment of brain cancer” (Tapestry Pharmaceuticals, Inc., priority 2007, dated 2015)
At least one compound was matched to its structure with a doubt left.

Tested on: human U251 (glioblastoma) CNS tumor cells
Conditions: temozolomide 80 mg/kg/dose po q4d×3
From the text: Tumor Model: Each animal was implanted with one million U251 human CNS tumor cells from an in vitro cell line by ic injection with a 25 gauge needle. The day of tumor implantation (May 24, 2006) was designated as day 0. A sufficient number of mice were implanted so that animals with body weights in a range as narrow as possible were selected for the trial on the day of treatment initiation (day 1 after tumor implantation). Animals were randomly assigned to the treatment groups and individually identified by earmark codes.
A portion of this solution was then diluted with the complete vehicle to achieve the lower dosing concentration of 1.2 mg/mL. […] Temozolomide (Temodar, Schering Corporation) was prepared on each day of injection in Klucel+tween 80 at a concentration of 4 mg/mL. Temozolomide was administered within 5 minutes of formulation on the basis of exact body weight using a volume of 0.2 mL/10 g of body weight.
Data Collection: Animal health surveillance was conducted and mortality data were collected daily. The animals were weighed twice weekly starting with the first day of treatment. […]
Parameters Evaluated: Number of 100-day survivors, median day of death, and the increase in lifespan based on median day of death and expressed as a percentage (% ILS), median survival time and the % ILS based on median survival time. […]

## Cn1nnc2c(C(N)=O)ncn2c1=O [Temozolomide]
  survivors at study termination on day 100: one
